Measurements reported in PubChem BioAssay AID1259308 (NCATS, 2017)

- Assay: 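Knock-downs that increase output of a recombinant reporter protein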 (primary screen)
- Cell system: human HEK293 embryonic kidney cells stably expressing firefly luciferase (HEK-CMV-Luc2-Hygro)
- Reagents: single siRNA against human genes, 0.8 pmol siRNA per well
- Timing: 72 h
- Measured: 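Reporter luminescence and viable-cell signal on separate replicate plates, given as percent of non-targeting control and median/MAD z-scores, plus per-cell luciferase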
- Reading the numbers: total luciferase, z-score and total luciferase, % of control: higher = more reporter protein produced
- Active means: 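Active when the median/MAD z-score for overall luciferase is greater than 3; a gene was taken forward for validation with new siRNAs if at least two of its three siRNAs passed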
- Calls: active = raised luciferase; inactive = no rise
Here is a random part of about 59,000 reagents tested. Of all reagents, about 1,510 (2.6%) are marked active. 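Calls use total luciferase alone and ignore viability, so some active siRNAs may act by altering cell number.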 Unmarked entries are inactive. Reagents against one gene are numbered here. Further read-outs or replicates are left out here.

LOC646865 (retired record) #1 gave total luciferase, z-score -0.461; total luciferase, % of control 72.7.
With knock-down of LOC646865 (retired record) #2, the record shows total luciferase, z-score -1.93; total luciferase, % of control 43.4.
For LOC646865 (retired record) #3, the entry reads total luciferase, z-score -0.993; total luciferase, % of control 62.1.
For PFDN5 (prefoldin subunit 5) #1, the values are total luciferase, z-score 1.11; total luciferase, % of control 104.
Knock-down of PFDN5 (prefoldin subunit 5) #2 resulted in: total luciferase, z-score 2.71; total luciferase, % of control 136.
After knock-down of PFDN5 (prefoldin subunit 5) #3, the screen gave total luciferase, z-score -1.54; total luciferase, % of control 51.3.
With knock-down of SH3BP5L (SH3 binding domain protein 5 like) #1, the record shows total luciferase, z-score 0.399; total luciferase, % of control 89.8.
With knock-down of SH3BP5L (SH3 binding domain protein 5 like) #2, the screen gave total luciferase, z-score 0.391; total luciferase, % of control 89.7.
SH3BP5L (SH3 binding domain protein 5 like) #3 scored total luciferase, z-score -0.821; total luciferase, % of control 65.6.
CCDC126 (coiled-coil domain containing 126) #1 gave total luciferase, z-score 0.596; total luciferase, % of control 93.7.
Depletion of CCDC126 (coiled-coil domain containing 126) #2 came out at: total luciferase, z-score 2.73; total luciferase, % of control 136.
CCDC126 (coiled-coil domain containing 126) #3 showed total luciferase, z-score 2.04; total luciferase, % of control 122.
SLC24A1 #1 showed total luciferase, z-score 0.38; total luciferase, % of control 89.4.
SLC24A1 #2 gave total luciferase, z-score -0.103; total luciferase, % of control 79.8.
After knock-down of SLC24A1 #3, the record shows total luciferase, z-score 1.45; total luciferase, % of control 111.
ZNF329 (zinc finger protein 329) #1 showed total luciferase, z-score -0.0944; total luciferase, % of control 80.
Knock-down of ZNF329 (zinc finger protein 329) #2 resulted in: total luciferase, z-score -1.22; total luciferase, % of control 57.7.
Silencing of ZNF329 (zinc finger protein 329) #3 gave: total luciferase, z-score -0.819; total luciferase, % of control 65.6.

Records listed so far whose gene name begins with S or s (6):
SH3BP5L (SH3 binding domain protein 5 like) #1 — total luciferase, z-score: 0.399; total luciferase, % of control: 89.8
SH3BP5L (SH3 binding domain protein 5 like) #2 — total luciferase, z-score: 0.391; total luciferase, % of control: 89.7
SH3BP5L (SH3 binding domain protein 5 like) #3 — total luciferase, z-score: -0.821; total luciferase, % of control: 65.6
SLC24A1 #1 — total luciferase, z-score: 0.38; total luciferase, % of control: 89.4
SLC24A1 #2 — total luciferase, z-score: -0.103; total luciferase, % of control: 79.8
SLC24A1 #3 — total luciferase, z-score: 1.45; total luciferase, % of control: 111

Next entries:
With knock-down of EFS (embryonal Fyn-associated substrate) #1, the screen gave total luciferase, z-score -0.443; total luciferase, % of control 73.1.
With knock-down of EFS (embryonal Fyn-associated substrate) #2, the record shows total luciferase, z-score -0.473; total luciferase, % of control 72.5.
Depletion of EFS (embryonal Fyn-associated substrate) #3 resulted in: total luciferase, z-score -0.368; total luciferase, % of control 74.6.
With knock-down of MROH2B (maestro heat like repeat family member 2B) #1 the results were total luciferase, z-score -0.919; total luciferase, % of control 63.6.
With knock-down of MROH2B (maestro heat like repeat family member 2B) #2 the results were total luciferase, z-score 2.51; total luciferase, % of control 132.
Silencing of MROH2B (maestro heat like repeat family member 2B) #3 gave: total luciferase, z-score -1.46; total luciferase, % of control 52.9.
Against LLPH (LLP homolog, long-term synaptic facilitation factor) #1, the entry reads total luciferase, z-score 0.206; total luciferase, % of control 86.
Against LLPH (LLP homolog, long-term synaptic facilitation factor) #2, the entry reads total luciferase, z-score -0.216; total luciferase, % of control 77.6.
Silencing of LLPH (LLP homolog, long-term synaptic facilitation factor) #3 resulted in: total luciferase, z-score -0.906; total luciferase, % of control 63.9.
With knock-down of AKT1S1 (AKT1 substrate 1) #1, the screen gave total luciferase, z-score 0.117; total luciferase, % of control 84.2.
Silencing of AKT1S1 (AKT1 substrate 1) #2 resulted in: total luciferase, z-score 0.817; total luciferase, % of control 98.1.
Depletion of AKT1S1 (AKT1 substrate 1) #3 came out at: total luciferase, z-score -0.428; total luciferase, % of control 73.4.
For IGFBPL1 (insulin like growth factor binding protein like 1) #1 the deposit lists total luciferase, z-score -0.722; total luciferase, % of control 67.5.
Silencing of IGFBPL1 (insulin like growth factor binding protein like 1) #2 came out at: total luciferase, z-score 0.101; total luciferase, % of control 83.9.
For IGFBPL1 (insulin like growth factor binding protein like 1) #3, the values are total luciferase, z-score -1.97; total luciferase, % of control 42.8.
Knock-down of ZNF423 (zinc finger protein 423) #1 gave: total luciferase, z-score -1.56; total luciferase, % of control 50.8.
Against ZNF423 (zinc finger protein 423) #2, the values are total luciferase, z-score -1.74; total luciferase, % of control 47.2.
With knock-down of ZNF423 (zinc finger protein 423) #3, the screen gave total luciferase, z-score 1.53; total luciferase, % of control 112.
EXOC1L (exocyst complex component 1 like) #1 showed total luciferase, z-score -0.506; total luciferase, % of control 71.8.
Depletion of EXOC1L (exocyst complex component 1 like) #2 resulted in: total luciferase, z-score 1.66; total luciferase, % of control 115.
Knock-down of EXOC1L (exocyst complex component 1 like) #3 came out at: total luciferase, z-score 2.13; total luciferase, % of control 124.
Against TUBGCP6 (tubulin gamma complex component 6) #1, the entry reads total luciferase, z-score 2.29; total luciferase, % of control 127.
With knock-down of TUBGCP6 (tubulin gamma complex component 6) #2, the record shows total luciferase, z-score 0.562; total luciferase, % of control 93.1.
Depletion of TUBGCP6 (tubulin gamma complex component 6) #3 resulted in: total luciferase, z-score -0.294; total luciferase, % of control 76.
